# Test results published in the supplement of paper PMC8728848.
# The list shows a part of the results.
# B1: Protectin (Homo sapiens), P13987 (protein)
# chain: MGIQGGSVLFGLLLVLAVFCHSGHSLQCYNCPNPTADCKTAVNCSSDFDACLITKAGLQVYNKCWKFEHCNFNDVTTRLRENELTYYCCKKDLCNFNEQLENGGTSLSEKTVLLLVTPFLAAAWSLHP
# Columns and labels:
# Assay in all cases: glycan array binding signal (z-score within array); higher = stronger binding
# Settings in all cases: glycan notation: IUPAC condensed, linker removed
# [1] = target: GlcNAc(a1-4)Gal(b1-4)GlcNAc(b1-3)Gal(b1-4)GlcNAc
# Summary of the method: (§1)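 Glycan array data were curated from 3228 arrays in the Consortium for Functional Glycomics database and kept only where the protein sequence was available. Glycan names were converted to IUPAC-condensed notation, and columns mapping to the same glycan were averaged. The binding signal is a within-array Z-score, averaged across arrays of the same protein sequence at different concentrations or buffers and across linkers. Negative Z-scores can be read as non-binding.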
# [2] = target: GlcNAc(a1-4)Gal(b1-4)GlcNAc(b1-3)Gal(b1-4)GlcNAc(b1-3)Gal(b1-4)GlcNAc
# Summary of the method: as §1
# [3] = target: GlcNAc(a1-4)Gal(b1-4)GlcNAc(b1-3)Gal(b1-4)[Fuc(a1-3)]GlcNAc(b1-3)Gal(b1-4)[Fuc(a1-3)]GlcNAc
# Summary of the method: as §1
# [4] = target: GlcNAc(a1-6)Gal(b1-4)GlcNAc
# Summary of the method: as §1
# [5] = target: GlcNAc(b1-2)Gal(b1-3)GalNAc
# Summary of the method: as §1
# [6] = target: GlcNAc(b1-2)Man(a1-3)[GlcNAc(b1-2)Man(a1-6)]Man(b1-4)GlcNAc(b1-4)GlcNAc
# Summary of the method: as §1
# [7] = target: GlcNAc(b1-2)Man(a1-3)[GlcNAc(b1-2)Man(a1-6)]Man(b1-4)GlcNAc(b1-4)[Fuc(a1-6)]GlcNAc
# Summary of the method: as §1
# [8] = target: GlcNAc(b1-2)Man(a1-3)[GlcNAc(b1-4)][GlcNAc(b1-2)Man(a1-6)]Man(b1-4)GlcNAc(b1-4)GlcNAc
# Summary of the method: as §1
# [9] = target: GlcNAc(b1-2)[GlcNAc(b1-4)]Man(a1-3)[GlcNAc(b1-2)Man(a1-6)]Man(b1-4)GlcNAc(b1-4)GlcNAc
# Summary of the method: as §1
# [10] = target: GlcNAc(b1-2)[GlcNAc(b1-4)]Man(a1-3)[GlcNAc(b1-4)][GlcNAc(b1-2)Man(a1-6)]Man(b1-4)GlcNAc(b1-4)GlcNAc
# Summary of the method: as §1
# [11] = target: GlcNAc(b1-2)[GlcNAc(b1-4)]Man(a1-3)[GlcNAc(b1-4)][GlcNAc(b1-2)[GlcNAc(b1-6)]Man(a1-6)]Man(b1-4)GlcNAc(b1-4)GlcNAc
# Summary of the method: as §1
# [12] = target: GlcNAc(b1-2)[GlcNAc(b1-6)]Man(a1-6)[GlcNAc(b1-2)Man(a1-3)]Man(b1-4)GlcNAc(b1-4)GlcNAc
# Summary of the method: as §1
# [13] = target: GlcNAc(b1-2)[GlcNAc(b1-6)]Man(a1-6)[GlcNAc(b1-2)Man(a1-3)][GlcNAc(b1-4)]Man(b1-4)GlcNAc(b1-4)GlcNAc
# Summary of the method: as §1
# GlcNAc(b1-3)Gal = target: GlcNAc(b1-3)Gal
# Summary of the method: as §1
# [14] = target: GlcNAc(b1-3)Gal(b1-3)GalNAc
# Summary of the method: as §1
# GlcNAc(b1-3)Gal(b1-4)Glc = target: GlcNAc(b1-3)Gal(b1-4)Glc
# Summary of the method: as §1
# [15] = target: GlcNAc(b1-3)Gal(b1-4)GlcNAc
# Summary of the method: as §1
# [16] = target: GlcNAc(b1-3)Gal(b1-4)GlcNAc(b1-3)Gal(b1-4)GlcNAc
# Summary of the method: as §1
# GlcNAc(b1-3)GalNAc = target: GlcNAc(b1-3)GalNAc
# Summary of the method: as §1
# GlcNAc(b1-3)Man = target: GlcNAc(b1-3)Man
# Summary of the method: as §1
# [17] = target: GlcNAc(b1-3)[GlcNAc(b1-4)][GlcNAc(b1-6)]GlcNAc
# Summary of the method: as §1
# [18] = target: GlcNAc(b1-3)[GlcNAc(b1-6)]Gal(b1-4)GlcNAc
# Summary of the method: as §1
# [19] = target: GlcNAc(b1-3)[GlcNAc(b1-6)]GalNAc
# Summary of the method: as §1
# [20] = target: GlcNAc(b1-4)Gal(b1-4)GlcNAc
# Summary of the method: as §1
# GlcNAc(b1-4)GlcNAc = target: GlcNAc(b1-4)GlcNAc
# Summary of the method: as §1
# [21] = target: GlcNAc(b1-4)GlcNAc(b1-4)GlcNAc
# Summary of the method: as §1
# [22] = target: GlcNAc(b1-4)GlcNAc(b1-4)GlcNAc(b1-4)GlcNAc(b1-4)GlcNAc
# Summary of the method: as §1
# [23] = target: GlcNAc(b1-4)GlcNAc(b1-4)GlcNAc(b1-4)GlcNAc(b1-4)GlcNAc(b1-4)GlcNAc
# Summary of the method: as §1
# [24] = target: GlcNAc(b1-4)[GlcNAc(b1-6)]GalNAc
# Summary of the method: as §1
# [25] = target: GlcNAc(b1-6)Gal(b1-4)GlcNAc
# Summary of the method: as §1
# GlcNAc(b1-6)GalNAc = target: GlcNAc(b1-6)GalNAc
# Summary of the method: as §1
# GlcNAc3Prop(b1-4)GlcNAc = target: GlcNAc3Prop(b1-4)GlcNAc
# Summary of the method: as §1
# [26] = target: GlcNAc6S(b1-3)Gal(b1-4)GlcNAc
# Summary of the method: as §1
# Kdn(a2-3)Gal(b1-3)GalNAc = target: Kdn(a2-3)Gal(b1-3)GalNAc
# Summary of the method: as §1
# Kdn(a2-3)Gal(b1-3)GlcNAc = target: Kdn(a2-3)Gal(b1-3)GlcNAc
# Summary of the method: as §1
# Kdn(a2-3)Gal(b1-4)Glc = target: Kdn(a2-3)Gal(b1-4)Glc
# Summary of the method: as §1
# Kdn(a2-3)Gal(b1-4)GlcNAc = target: Kdn(a2-3)Gal(b1-4)GlcNAc
# Summary of the method: as §1
# [27] = target: Kdn(a2-3)Gal(b1-4)[Fuc(a1-3)]GlcNAc
# Summary of the method: as §1
# Kdn(a2-6)Gal(b1-4)GlcNAc = target: Kdn(a2-6)Gal(b1-4)GlcNAc
# Summary of the method: as §1
# [28] = target: Man(a1-2)Man(a1-2)Man(a1-3)Man
# Summary of the method: as §1
# [29] = target: Man(a1-2)Man(a1-2)Man(a1-6)[Man(a1-3)]Man
# Summary of the method: as §1
# Man(a1-2)Man(a1-3)Man = target: Man(a1-2)Man(a1-3)Man
# Summary of the method: as §1
# [30] = target: Man(a1-2)Man(a1-3)[Man(a1-2)Man(a1-6)]Man
# Summary of the method: as §1
# [31] = target: Man(a1-2)Man(a1-3)[Man(a1-2)Man(a1-6)]Man(a1-6)[Man(a1-2)Man(a1-2)Man(a1-3)]Man
# Summary of the method: as §1
# [32] = target: Man(a1-2)Man(a1-3)[Man(a1-2)Man(a1-6)]Man(a1-6)[Man(a1-2)Man(a1-2)Man(a1-3)]Man(b1-4)GlcNAc(b1-4)GlcNAc
# Summary of the method: as §1
binder,measurement,setting,value
B1,glycan array binding signal (z-score),[1],0.746
same,glycan array binding signal (z-score),[2],0.914
same,glycan array binding signal (z-score),[3],6.43
same,glycan array binding signal (z-score),[4],-0.166
same,glycan array binding signal (z-score),[5],-0.869
same,glycan array binding signal (z-score),[6],0.255
same,glycan array binding signal (z-score),[7],2.37
same,glycan array binding signal (z-score),[8],0.043
same,glycan array binding signal (z-score),[9],-0.787
same,glycan array binding signal (z-score),[10],1.04
same,glycan array binding signal (z-score),[11],0.781
same,glycan array binding signal (z-score),[12],-0.347
same,glycan array binding signal (z-score),[13],-0.097
same,glycan array binding signal (z-score),GlcNAc(b1-3)Gal,-0.385
same,glycan array binding signal (z-score),[14],0.142
same,glycan array binding signal (z-score),GlcNAc(b1-3)Gal(b1-4)Glc,0.573
same,glycan array binding signal (z-score),[15],-1.56
same,glycan array binding signal (z-score),[16],0.315
same,glycan array binding signal (z-score),GlcNAc(b1-3)GalNAc,-0.942
same,glycan array binding signal (z-score),GlcNAc(b1-3)Man,-0.793
same,glycan array binding signal (z-score),[17],-0.105
same,glycan array binding signal (z-score),[18],-0.188
same,glycan array binding signal (z-score),[19],-0.61
same,glycan array binding signal (z-score),[20],-0.995
same,glycan array binding signal (z-score),GlcNAc(b1-4)GlcNAc,-0.159
same,glycan array binding signal (z-score),[21],0.162
same,glycan array binding signal (z-score),[22],0.181
same,glycan array binding signal (z-score),[23],-1.56
same,glycan array binding signal (z-score),[24],-0.104
same,glycan array binding signal (z-score),[25],-0.31
same,glycan array binding signal (z-score),GlcNAc(b1-6)GalNAc,1.09
same,glycan array binding signal (z-score),GlcNAc3Prop(b1-4)GlcNAc,-1.51
same,glycan array binding signal (z-score),[26],-0.098
same,glycan array binding signal (z-score),Kdn(a2-3)Gal(b1-3)GalNAc,-1.16
same,glycan array binding signal (z-score),Kdn(a2-3)Gal(b1-3)GlcNAc,-1.23
same,glycan array binding signal (z-score),Kdn(a2-3)Gal(b1-4)Glc,-0.128
same,glycan array binding signal (z-score),Kdn(a2-3)Gal(b1-4)GlcNAc,-1.49
same,glycan array binding signal (z-score),[27],-0.103
same,glycan array binding signal (z-score),Kdn(a2-6)Gal(b1-4)GlcNAc,-0.416
same,glycan array binding signal (z-score),[28],-0.54
same,glycan array binding signal (z-score),[29],-0.785
same,glycan array binding signal (z-score),Man(a1-2)Man(a1-3)Man,0.339
same,glycan array binding signal (z-score),[30],-0.712
same,glycan array binding signal (z-score),[31],-0.071
same,glycan array binding signal (z-score),[32],-0.125

# Reprinted at random: 4 records from the list.
binder,measurement,setting,value
B1,glycan array binding signal (z-score),[2],0.914
same,glycan array binding signal (z-score),Kdn(a2-3)Gal(b1-3)GlcNAc,-1.23
same,glycan array binding signal (z-score),[25],-0.31
same,glycan array binding signal (z-score),GlcNAc(b1-3)Gal(b1-4)Glc,0.573
